Assay results reported in patent publication EP3205663A1.
These are yes or no findings as the source states them, for the method shown. For some of these results: Binding seen in cells or lysates may run through a third protein. Some entries that bind do so weakly or less than the wild type.

Amino acid sequences for entries named in this document (tags omitted). A change or cut given only in a name is not applied to a line headed by its entry.
UniProt Q00403: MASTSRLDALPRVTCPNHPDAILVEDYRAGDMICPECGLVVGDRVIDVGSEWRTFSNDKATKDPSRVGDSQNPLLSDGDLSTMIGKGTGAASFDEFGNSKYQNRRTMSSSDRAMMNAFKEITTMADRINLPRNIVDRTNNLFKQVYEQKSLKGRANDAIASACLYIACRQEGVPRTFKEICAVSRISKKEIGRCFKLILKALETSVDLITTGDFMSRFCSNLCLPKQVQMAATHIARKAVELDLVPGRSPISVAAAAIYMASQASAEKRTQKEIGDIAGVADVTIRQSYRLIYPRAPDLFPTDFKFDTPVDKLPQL
UniProt Q80A33: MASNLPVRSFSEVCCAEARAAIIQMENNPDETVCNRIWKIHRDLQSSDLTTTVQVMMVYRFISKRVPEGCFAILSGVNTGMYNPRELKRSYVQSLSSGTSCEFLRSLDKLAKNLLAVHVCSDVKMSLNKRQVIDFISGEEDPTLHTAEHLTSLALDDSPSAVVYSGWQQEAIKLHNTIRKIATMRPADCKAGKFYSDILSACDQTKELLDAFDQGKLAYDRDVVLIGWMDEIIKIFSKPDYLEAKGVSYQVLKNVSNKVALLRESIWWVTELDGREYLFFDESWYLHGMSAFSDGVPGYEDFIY

What was measured:
[1] = target: recombinant GST-TFIIB (UniProt Q00403); assay: co-precipitation with recombinant GST-TFIIB (Figure 9), as summed up in the description
[2] = target: recombinant GST-TFIIB (UniProt Q00403); assay: co-precipitation of 35S-labelled GFP-ML fragment with recombinant GST-TFIIB, autoradiography
[3] = target: recombinant GST-TFIIB (UniProt Q00403); assay: summary of the fragment experiments in the description

Row | Substance | binding [1] | binding [2] | binding [3]
1 | GFP-ML (247-304; C-terminal 57 AA) (from UniProt Q80A33 247-304) | binds | binds | 
2 | ML fragment of aa 249 to 304 (from UniProt Q80A33 249-304) | binds |  | binds
